Results deposited as PubChem BioAssay AID1259303 (Sanger Institute, 2017).
In all, the deposit lists 160 reagents; this is a part drawn at random. Of all reagents, 11 (6.9%) are marked active. 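Viability capped at 1; how the synergy score is calculated is not stated; four separate siRNAs target each gene.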 The numbers tell different reagents against one gene apart. No sequences are given here. The record does not give: the amount of reagent, the time to read-out.

- Test: 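Which silenced kinases add to BYL719, cetuximab or trametinib effects in colorectal cancer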 (follow-up of hits)
- Cells: human COLO320HSR colorectal cancer cells
- Reagent: single siRNA against human genes
- Conditions: anchor drug BYL719 (1 µM), cetuximab (5 µg/ml) or trametinib (10 nM), or DMSO vehicle alone
- Detection: 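Synergy of each knock-down with BYL719 (1 µM), cetuximab (5 µg/ml) or trametinib (10 nM) versus drug alone, plus mean viability normalised to non-targeting pool 2 siRNA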
- Scale: synergy score with BYL719: higher = stronger combined killing with BYL719; synergy score with cetuximab: higher = stronger combined killing with cetuximab; synergy score with trametinib: higher = stronger combined killing with trametinib; viability, siRNA alone (DMSO): higher = more viable cells
- Active means: 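Called active if the synergy score tops 0.10 with BYL719, cetuximab or trametinib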
- Calls: active = synergy with at least one drug; inactive = no synergy found

| Target gene | reagent no. | synergy score with BYL719 | synergy score with cetuximab | synergy score with trametinib | viability, siRNA alone (DMSO) (fraction of control) | outcome |
| --- | --- | --- | --- | --- | --- | --- |
| NR2F2 (nuclear receptor subfamily 2 group F member 2) | 1 | -0.0908 | -0.0475 | -0.0599 | 0.915 | inactive |
| NR2F2 (nuclear receptor subfamily 2 group F member 2) | 2 | -0.147 | -0.132 | -0.229 | 0.771 | inactive |
| NR2F2 (nuclear receptor subfamily 2 group F member 2) | 3 | -0.357 | -0.245 | -0.259 | 0.741 | inactive |
| NR2F2 (nuclear receptor subfamily 2 group F member 2) | 4 | -0.163 | -0.133 | -0.149 | 0.675 | inactive |
| PINK1 (PTEN induced kinase 1) | 1 | -0.371 | -0.174 | -0.28 | 0.72 | inactive |
| PINK1 (PTEN induced kinase 1) | 2 | -0.128 | 0.0805 | -0.0506 | 0.882 | inactive |
| PINK1 (PTEN induced kinase 1) | 3 | -0.107 | -0.000579 | -0.237 | 0.656 | inactive |
| PINK1 (PTEN induced kinase 1) | 4 | -0.0287 | -0.124 | -0.0901 | 0.876 | inactive |
| PIK3CA | 1 | -0.173 | 0.00987 | -0.013 | 0.987 | inactive |
| PIK3CA | 2 | -0.189 | 0.0631 | -0.171 | 0.829 | inactive |
| PIK3CA | 3 | -0.0115 | -0.0493 | -0.0493 | 0.951 | inactive |
| PIK3CA | 4 | -0.161 | -0.0101 | -0.0175 | 0.982 | inactive |
| STK36 (serine/threonine kinase 36) | 1 | -0.206 | -0.153 | -0.432 | 0.529 | inactive |
| STK36 (serine/threonine kinase 36) | 2 | -0.194 | -0.197 | -0.193 | 0.788 | inactive |
| STK36 (serine/threonine kinase 36) | 3 | -0.367 | 0.0286 | -0.102 | 0.898 | inactive |
| STK36 (serine/threonine kinase 36) | 4 | -0.182 | -0.223 | -0.246 | 0.754 | inactive |
| MAPKAPK2 (MAPK activated protein kinase 2) | 1 | -0.12 | -0.103 | -0.103 | 0.897 | inactive |
| MAPKAPK2 (MAPK activated protein kinase 2) | 2 | -0.0297 | -0.174 | -0.187 | 0.791 | inactive |
| MAPKAPK2 (MAPK activated protein kinase 2) | 3 | -0.104 | -0.0385 | -0.151 | 0.849 | inactive |
| MAPKAPK2 (MAPK activated protein kinase 2) | 4 | -0.00163 | -0.159 | -0.136 | 0.841 | inactive |

Next part, starting with the last 4 of the part before.
| Target gene | reagent no. | synergy score with BYL719 | synergy score with cetuximab | synergy score with trametinib | viability, siRNA alone (DMSO) (fraction of control) | outcome |
| --- | --- | --- | --- | --- | --- | --- |
| MAPKAPK2 (MAPK activated protein kinase 2) | 1 | -0.12 | -0.103 | -0.103 | 0.897 | inactive |
| MAPKAPK2 (MAPK activated protein kinase 2) | 2 | -0.0297 | -0.174 | -0.187 | 0.791 | inactive |
| MAPKAPK2 (MAPK activated protein kinase 2) | 3 | -0.104 | -0.0385 | -0.151 | 0.849 | inactive |
| MAPKAPK2 (MAPK activated protein kinase 2) | 4 | -0.00163 | -0.159 | -0.136 | 0.841 | inactive |
| PAK1 (p21 (RAC1) activated kinase 1) | 1 | -0.0755 | -0.152 | -0.152 | 0.848 | inactive |
| PAK1 (p21 (RAC1) activated kinase 1) | 2 | -0.0634 | 0.0138 | -0.0596 | 0.863 | inactive |
| PAK1 (p21 (RAC1) activated kinase 1) | 3 | -0.0303 | 0 | 0 | 1 | inactive |
| PAK1 (p21 (RAC1) activated kinase 1) | 4 | -0.0708 | -0.0356 | -0.0712 | 0.929 | inactive |
| HSPB8 (heat shock protein family B (small) member 8) | 1 | -0.0632 | -0.0184 | -0.0402 | 0.96 | inactive |
| HSPB8 (heat shock protein family B (small) member 8) | 2 | -0.37 | -0.0446 | -0.0962 | 0.904 | inactive |
| HSPB8 (heat shock protein family B (small) member 8) | 3 | -0.155 | -0.0319 | -0.0319 | 0.968 | inactive |
| HSPB8 (heat shock protein family B (small) member 8) | 4 | 0.00867 | 0.134 | 0.0564 | 0.899 | active |
| CRIM1 (cysteine rich transmembrane BMP regulator 1) | 1 | -0.0536 | -0.109 | -0.129 | 0.871 | inactive |
| CRIM1 (cysteine rich transmembrane BMP regulator 1) | 2 | -0.303 | 0.0691 | 0 | 1 | inactive |
| CRIM1 (cysteine rich transmembrane BMP regulator 1) | 3 | 0.125 | -0.0153 | -0.0489 | 0.851 | active |
| CRIM1 (cysteine rich transmembrane BMP regulator 1) | 4 | -0.0595 | 0.00712 | -0.133 | 0.867 | inactive |
| GRK5 (G protein-coupled receptor kinase 5) | 1 | -0.136 | 0 | 0 | 1 | inactive |
| GRK5 (G protein-coupled receptor kinase 5) | 2 | -0.151 | 0 | 0 | 1 | inactive |
| GRK5 (G protein-coupled receptor kinase 5) | 3 | -0.236 | -0.143 | -0.158 | 0.842 | inactive |
| GRK5 (G protein-coupled receptor kinase 5) | 4 | -0.242 | 0.035 | -0.1 | 0.9 | inactive |
| CSNK2A2 (casein kinase 2 alpha 2) | 1 | -0.103 | -0.0349 | -0.0349 | 0.965 | inactive |
| CSNK2A2 (casein kinase 2 alpha 2) | 2 | -0.204 | -0.0782 | -0.167 | 0.393 | inactive |
| CSNK2A2 (casein kinase 2 alpha 2) | 3 | -0.226 | -0.125 | -0.126 | 0.874 | inactive |
| CSNK2A2 (casein kinase 2 alpha 2) | 4 | -0.199 | -0.0184 | -0.137 | 0.61 | inactive |
